# Library screening results

Chains of the proteins cited; added tags and fusions are not shown.
UniProt E9BF75, entry or part of it: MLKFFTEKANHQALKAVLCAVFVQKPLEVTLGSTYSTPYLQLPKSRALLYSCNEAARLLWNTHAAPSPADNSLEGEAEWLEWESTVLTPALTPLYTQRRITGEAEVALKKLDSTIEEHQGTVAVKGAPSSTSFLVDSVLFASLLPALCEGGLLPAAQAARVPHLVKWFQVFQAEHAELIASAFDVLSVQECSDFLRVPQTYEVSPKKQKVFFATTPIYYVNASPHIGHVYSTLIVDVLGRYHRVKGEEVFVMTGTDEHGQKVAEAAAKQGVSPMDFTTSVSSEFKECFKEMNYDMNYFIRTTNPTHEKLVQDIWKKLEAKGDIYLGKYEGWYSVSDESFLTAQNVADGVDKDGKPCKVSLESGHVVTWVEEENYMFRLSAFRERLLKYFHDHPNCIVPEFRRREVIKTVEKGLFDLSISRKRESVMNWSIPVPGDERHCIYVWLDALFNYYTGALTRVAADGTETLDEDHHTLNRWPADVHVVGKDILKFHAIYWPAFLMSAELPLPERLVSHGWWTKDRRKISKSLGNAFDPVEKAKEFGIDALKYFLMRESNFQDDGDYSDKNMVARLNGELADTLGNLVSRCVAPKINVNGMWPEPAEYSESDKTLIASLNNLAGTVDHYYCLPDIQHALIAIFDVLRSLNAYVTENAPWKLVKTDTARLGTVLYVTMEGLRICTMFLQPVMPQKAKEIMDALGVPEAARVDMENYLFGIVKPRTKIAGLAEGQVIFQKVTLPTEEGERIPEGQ

From ChEMBL document CHEMBL3988442, “University of Dundee, Small-Polar-MMV Screening Library” (2021).

Results are percentages, as filed. The controls that fix the scale are not given in the record; negative values are as filed. The compounds are a random part of those screened.

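Primary screen of methionyl-tRNA synthetase; the read-out is not stated. Target: Methionyl-tRNA synthetase (putative), Leishmania donovani (UniProt E9BF75). The test concentration is not given. The values are filed as inhibition. Of about 68,000 compounds tested this way, about 24 (0.035%) reached 50% or more in at least one test.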

compound,Inhibition
COCCOCC(=O)NC(C#N)c1cc(Cl)cc(Cl)c1 (centres undefined),2.847
O=C1NC(c2cnc(C3CCC3)s2)Nc2ncccc21 (centres undefined),12.68
Cc1cc(C2CCCN2C(=O)NCc2ccccn2)on1 (centres undefined),17.6
CN1CCN(c2nc(-c3cnn(C)c3)cs2)CC1,12.36
CN1CCN(C(=O)c2cn(Cc3ccccc3)c3ncccc23)CC1,5.278
CCOCCNS(=O)(=O)c1cc(C)c2nc(O)cc(C)c2c1,5.706
Cc1nn(C2CCS(=O)(=O)C2)c(O)c1Cc1ccccc1Cl (centres undefined),10.61
Nc1cnc(-c2cccc3c2CCNC3)cn1,11.06
Cc1ncsc1CN(C)Cc1cc2c(cc1OC(F)F)OCO2,12.36
Cc1n[nH]c(C)c1CNC(=O)N(Cc1ccccc1)CC(C)(C)O,14.95
COCCN1CCC(CN(C)c2nc3c(s2)c(C)nn3C)CC1,2.93
CCS(=O)(=O)N1CCc2ncnc(C)c2CC1,11.42
CCn1ccnc1CN1CCN(c2ncnc3ccsc23)CC1,9.926
CC(C)n1cc(C(=O)N2CCN(c3cccc(C(F)(F)F)c3)CC2)cn1,6.65
NC(=O)CN1CCC(C(=O)N2CCCC(OCc3cccnc3)C2)CC1 (centres undefined),16.3
COc1cc(N2CC[C@@H]3O[C@H](C(=O)N(C)C)C[C@@H]32)ncn1,5.753
CCO[C@H]1CN(C)C[C@@H]1NC(=O)c1cc(C)nc2ccc(C)cc12,6.138
COC(=O)c1ccc(S(=O)(=O)N2CCCn3ncnc32)s1,19.77
COc1cccc(CN(C)Cc2nc(C(C)C)no2)c1,-10
CN(CC1COc2ccccc2O1)C(=O)NCCCn1cccn1 (centres undefined),14.21
CC(Cn1cccn1)NC(=O)NCc1cccnc1 (centres undefined),15.47
COc1ccc(CCNC(=O)C(C)Nc2ccc(C)c(C)c2)cc1 (centres undefined),4.032
Cc1cc(NC(=O)CN2CCCC2c2noc(C(C)C)n2)no1 (centres undefined),6.069
Cn1cc(N2C(=O)CC[C@@H]3[C@H]2CCN3CC2CCOCC2)cn1,11.23
CC(c1nc(C2CC2)no1)N(C)Cc1ccc(C#N)cc1 (centres undefined),4.032
CCCC(=O)N1CCC(N2CC[C@@](O)(CCOC)[C@H](C)C2)CC1,12.93
Cc1cccc(-n2cnc(Cl)c2C(=O)O)c1,18.38
O=S1(=O)N(c2ccccc2)C[C@H](O)[C@]12CCNC2,10.54
Cc1ccc(C(=O)N2CCC(Oc3cccc(C)c3C)CC2)c(=O)[nH]1,13.11
CC(=O)C1(c2ccccc2)CCN(C(=O)CC2CNCCO2)CC1 (centres undefined),13.06
Cc1cnn(CCNCC(=O)NC(c2ccccc2)c2ccccc2)c1,25.07
COc1c(CNC2CCOc3ccccc32)c(C(C)C)nn1C (centres undefined),14.92
COC(=O)c1c(C(F)(F)F)cnc(OC)c1Cl,17.79
Cc1ccc(CN2CCC3(CC2)C(=O)N(CC(C)C)CCN3C)o1,10.56
CC(C)(C)OC(=O)N(CCNS(=O)(=O)N1CCOCC1)C1CC1,12.04
COCCNc1ccccc1CNC(=O)NCc1nc(C)c(C)s1,6.643
Cc1ccc(C(=O)N2CCCC2c2nnc3n2CCCCC3)o1 (centres undefined),15.93
CCOC(=O)C1CCN(c2cc(C(=O)N3CCCCC3)nc(C)n2)CC1,6.077
Cc1[nH]ccc1C(=O)N[C@H]1CN(S(C)(=O)=O)C[C@@H]1C1CC1,-0.8357
Fc1ccc(CNCc2nnc3n2CC(C(F)(F)F)CC3)c(F)c1 (centres undefined),12.93
O=C(Nc1cn[nH]c1)N(CCCO)C1CCc2ccccc21 (centres undefined),6.969
COc1ccc(C(=O)N2CC(=O)N(C3CCC3)CC(O)C2)cc1OC (centres undefined),17.26
O=C(COc1ccc(Cl)cc1)Nc1cnc(N2CCOCC2)nc1,14.91
COCCc1noc(CN(C)c2nccc(C)n2)n1,9.669
OC1(Cn2ccnc2)CCN(C[C@]2(O)CCCN3CCCC[C@@H]32)CC1,5.075
Cc1ccnc(OC[C@]23COC[C@H]2CN(C(=O)c2cnccn2)C3)n1,3.553
CC(C)=CCN1C(=O)[C@H]2CC[C@@H]1CN(c1ncccn1)C2,12.36
Cn1nc(C2CCNC2)c2c(C(=O)NCC(F)(F)F)cc(C3CC3)nc21 (centres undefined),11.43
Cc1occc1C(=O)N1C[C@@H]2OCCN(C(C)C)[C@@H]2C1,5.333
O=C(NC1CCN(c2ccc(-c3ccccc3F)nn2)C1)c1cc[nH]n1 (centres undefined),10.79
CCNc1ncc(C(=O)NC2CCc3ccccc3C2)cn1 (centres undefined),0
COc1cccc(N2CCC(CNC(=O)CN3CSCC3=O)C2)c1 (centres undefined),4.935
CN(C)C(=O)C1CCCN1c1ncnc2ccsc12 (centres undefined),10.29
O=C(COc1ccc(-c2ccccc2)nc1)NCC1CC1,5.426
Cn1ncc2c(N[C@@H]3CS(=O)(=O)C[C@H]3O)nc(C(C)(C)C)nc21,9.384

The last 3 entries again:

| compound | Inhibition |
|---|---|
| `CN(C)C(=O)C1CCCN1c1ncnc2ccsc12` (centres undefined) | 10.29 |
| `O=C(COc1ccc(-c2ccccc2)nc1)NCC1CC1` | 5.426 |
| `Cn1ncc2c(N[C@@H]3CS(=O)(=O)C[C@H]3O)nc(C(C)(C)C)nc21` | 9.384 |